About 780 (0.22%) of roughly 360,000 compounds were called active. Inconclusive results, whose numbers are uncertain, are shown with a selection of clear calls. No stated cut-off is given here; in the data, active means inhibition above about 35% (passing the limit was not always enough); inconclusive means no clear call, values can overlap the other calls.
System: Botulinum neurotoxin type F light chain protease (Clostridium botulinum)
Experiment: BoNT/F light chain protease inhibitors, primary screen, biochemical, flow cytometry, MLPCN library (AID 588497); further: plate controls were buffer without enzyme for full effect and enzyme alone for no effect
Settings: Multiplex microsphere protease cleavage assay, at 10 µM, stronger effect = higher value

For `C/C(=N\NC(=O)c1n[nH]c2c1CCC2)c1ccco1`, which inhibition is on record?
Its inhibition is inconclusive: -31.8%.

For `Cc1cc(NC(=O)CSc2nnc(-c3ccccc3Cl)o2)no1`, which inhibition is on record?
The inhibition was inactive: -14.9%.

How did the inhibition turn out when `Cc1ccc(C(NC(=O)/C=C\c2ccc3c(c2)OCO3)C(=O)Nc2ccc3c(c2)OCO3)cc1` (stereo unspecified) was run?
Its inhibition is inactive: -3.5%.

How did the inhibition turn out when `OCCC1CN(CC#Cc2ccccc2)CCN1Cc1ccccc1F` (stereo unspecified) was run?
Its inhibition is inconclusive: -4.8%.

Which inhibition does the source give for `CCCc1cc(=S)n2c([nH]c3ccccc32)c1C#N` here?
Its inhibition is inconclusive: -40%.

With `NS(=O)(=O)c1ccc(N=Nc2c(O)c(C(=O)O)cc3ccccc23)cc1` as the compound, how does the inhibition read?
The inhibition was inconclusive: -19.1%.

`O=C(CNC(=O)c1cccc(Br)c1)N/N=C/c1cccs1` was tested. Which inhibition did it give?
Its inhibition is inconclusive: -37.5%.

For `Clc1ccc(CNC2CCN(Cc3ccccc3)CC2)cc1`, which inhibition is on record?
Its inhibition is inconclusive: -34.3%.

Which inhibition does the source give for `CCOC(=O)C(C)n1cnc2c(oc3ccccc32)c1=O` (stereo unspecified) here?
Its inhibition is inactive: -1.4%.

Which inhibition does the source give for `Cc1ccccc1OCC(=O)Nc1ccc(N2CCN(C(=O)c3ccco3)CC2)cc1` here?
Its inhibition is inactive: 3.7%.

`CC(C)(C)C1CCC(OC(=O)CN2CCCCC2)CC1` (stereo unspecified) was tested. Which inhibition did it give?
The inhibition was inconclusive: -6.1%.

How did the inhibition turn out when `Brc1ccc(-c2ccc(CNCc3ccccn3)o2)cc1` was run?
Its inhibition is inconclusive: -13.9%.

With `CCc1ccc(N2C(=O)CC(Cn3nc(C)cc3C)C2=O)cc1` (stereo unspecified) as the compound, how does the inhibition read?
The inhibition was inconclusive: -86.7%.

With `Nc1c(C(=O)N/N=C/c2ccc(Cl)cc2)cnn1-c1ccccc1` as the compound, how does the inhibition read?
The inhibition was inconclusive: -20.7%.

With `C=CCN1C(=O)C(CC(=O)NCC)SC1=Nc1cc(Cl)ccc1Cl` (stereo unspecified) as the compound, how does the inhibition read?
Its inhibition is inconclusive: 16.5%.

For `CC(=O)NC(N(C#N)c1nc(Cl)nc(N(C)C)n1)C(Cl)(Cl)Cl` (stereo unspecified), which inhibition is on record?
The inhibition was inconclusive: -61.3%.

`O=S(=O)(c1ccc(-c2cc(C(F)(F)F)on2)s1)N1CCCC1` was tested. Which inhibition did it give?
The inhibition was inconclusive: -5.7%.

With `Cc1ccc(-c2cc(C(F)F)n3ncc(C(=O)Nc4c(C)nn(Cc5c(Cl)cccc5Cl)c4C)c3n2)cc1` as the compound, how does the inhibition read?
The inhibition was inconclusive: -27.8%.

`COc1ccc(CCNC(=O)CSCC(=O)Nc2ccccc2)cc1OC` was tested. Which inhibition did it give?
Its inhibition is inconclusive: -30.8%.

With `COc1ccc(C(=O)CCC(=O)Nc2cccnc2)cc1OC` as the compound, how does the inhibition read?
The inhibition was inactive: -6.7%.

How did the inhibition turn out when `CN(C)c1ccc(/C=N/NC(=O)c2cc(-c3ccc4c(c3)OCO4)n[nH]2)cc1` was run?
The inhibition was inconclusive: 57.1%.

With `O=C(CNC(=O)c1cccc(Cl)c1)N/N=C/c1cccnc1` as the compound, how does the inhibition read?
The inhibition was inconclusive: 10.3%.

For `CCCN(CCC)C(=O)c1oc2ccccc2c1NC(=O)Cc1cccc(OC)c1`, which inhibition is on record?
Its inhibition is inactive: -17.2%.

With `Cc1ccc(N2C(N)=NC(N)=NC23CCCC3)c(C)c1` as the compound, how does the inhibition read?
The inhibition was inconclusive: 0.8%.

Which inhibition does the source give for `COc1ccc(OC)c(N2C(=O)CCCC2=O)c1` here?
Its inhibition is inconclusive: -17.1%.

Which inhibition does the source give for `COc1ccccc1COc1ccc2c(C)c(CCC(=O)O)c(=O)oc2c1C` here?
Its inhibition is inactive: -12.8%.

`COc1cccc(CC2(CO)CCCN(Cc3ccc(OC(F)F)cc3)C2)c1` (stereo unspecified) was tested. Which inhibition did it give?
The inhibition was inconclusive: 25.1%.

With `COc1ccc(OC)c(N(CC(=O)N2CCC(C)CC2)S(=O)(=O)c2ccc(OC)c(OC)c2)c1` as the compound, how does the inhibition read?
The inhibition was inactive: -6.5%.

How did the inhibition turn out when `Cc1ccc(C)c(NC(=O)CCN2CCN(C)CC2)c1` was run?
Its inhibition is inconclusive: 2.4%.

For `Cc1cc(C(=O)NNS(=O)(=O)c2cccc(Cl)c2)nn1C(C)(C)C`, which inhibition is on record?
The inhibition was inconclusive: 131%.

Which inhibition does the source give for `COc1cccc(-n2nnc3c(=O)n(Cc4ccccc4F)cnc32)c1` here?
The inhibition was inactive: -4.6%.

With `Cc1nnc(N2CCN(c3ccccc3)CC2)[nH]c1=O` as the compound, how does the inhibition read?
Its inhibition is inconclusive: -17%.

For `CCCCCn1c(=O)c(C(=O)Nc2ccccc2)c(O)c2ccccc21`, which inhibition is on record?
The inhibition was inconclusive: 19.4%.

Which inhibition does the source give for `CCN(CC)S(=O)(=O)c1ccc(C(=O)O)cc1` here?
Its inhibition is inactive: -4.9%.

How did the inhibition turn out when `Cc1nn(-c2ccccc2)nc1C(=O)NN` was run?
Its inhibition is inconclusive: -27.1%.

Which inhibition does the source give for `CCOC(=O)c1[nH]c(=O)[nH]c1CNc1ccccc1C#N` here?
Its inhibition is inconclusive: 3.4%.

How did the inhibition turn out when `Cc1cccc(NC(=O)N2CCCC2C(=O)NCc2ccccc2)c1` (stereo unspecified) was run?
Its inhibition is inconclusive: 12.6%.

`CCCCn1c(OC(=S)N(CC)CC)cc(C)nc1=S` was tested. Which inhibition did it give?
Its inhibition is inactive: -2.5%.

With `COC(=O)c1cccc(NC(=O)c2ccc3c(c2)C(=O)N(C(C)(C)C)C3=O)c1` as the compound, how does the inhibition read?
The inhibition was inconclusive: 41.6%.

`CCOC(=O)c1oc2ccccc2c1NC(=O)c1cccc(OC)c1` was tested. Which inhibition did it give?
The inhibition was inactive: -1.3%.

`Cc1cc(C)n(-c2ncc3c(n2)N(CCO)CCOC3=O)n1` was tested. Which inhibition did it give?
Its inhibition is active: 35%.

For `CCC1=C(OC(=O)N(CC)CC)N2C(=O)OC(=NCC(=O)OC)[C@]2(C)[C@H]2C1=CC[C@H]1C(=O)N(CC)C(=O)[C@H]12`, which inhibition is on record?
The inhibition was inactive: 1.6%.

Which inhibition does the source give for `CN(C)CCn1c(=O)n(-c2ccc(F)cc2)c(=O)c2c3c(sc21)CCCCC3` here?
Its inhibition is inconclusive: 87.8%.

With `CS(=O)(=O)N1CCc2cc(C(=O)Nc3ccc(COCC(F)(F)F)cc3)ccc21` as the compound, how does the inhibition read?
Its inhibition is inconclusive: -165%.

For `COc1ccc(CCNC(=O)C2CCCN2C(=O)Nc2ccc(Cl)cc2)cc1OC` (stereo unspecified), which inhibition is on record?
The inhibition was inconclusive: -22.2%.

With `Cc1cc(NC(=O)Cc2ccc(Br)cc2)no1` as the compound, how does the inhibition read?
The inhibition was inconclusive: 14.3%.

`CC(Sc1nncs1)C(=O)NCC(=O)Nc1ccc(F)c(F)c1F` (stereo unspecified) was tested. Which inhibition did it give?
Its inhibition is inactive: -1.6%.

For `CSCC[C@H](NC(=O)OC(C)(C)C)C(=O)N/N=C/c1ccc2nccnc2c1`, which inhibition is on record?
The inhibition was inconclusive: 116%.

For `Cc1nc(S(=O)(=O)c2ccc(Cl)cc2)c(N(C)C)o1`, which inhibition is on record?
Its inhibition is inactive: 1.6%.

For `COc1ccc(CNc2ccc3c(c2)CCC3)cc1Br`, which inhibition is on record?
The inhibition was inconclusive: 1.6%.

For `CCc1cc2c(=O)n(-c3ccccc3)c(SCC(=O)O)nc2s1`, which inhibition is on record?
Its inhibition is inconclusive: 16.6%.

How did the inhibition turn out when `COc1ccc(C(CNC(=O)c2cccc(NS(=O)(=O)c3ccc(Br)cc3)c2)N(C)C)cc1` (stereo unspecified) was run?
The inhibition was inconclusive: 11.4%.

For `COC(=O)[C@H](Cc1ccccc1)NC(=O)Nc1ccc(OC)cc1`, which inhibition is on record?
Its inhibition is inconclusive: -48.8%.

For `CCC(/C=C1\Oc2ccc(OC)cc2N1C)=C\c1sc2ccccc2[n+]1CCCS(=O)(=O)[O-]`, which inhibition is on record?
Its inhibition is inconclusive: 41.5%.

With `CCOC(=O)c1cnc2c(C(=O)OCC)cnn2c1N` as the compound, how does the inhibition read?
Its inhibition is inconclusive: -15.3%.

For `CC(=O)Nc1cccc(-c2ccnc3c2CC(C(=O)Nc2cccc(N(C)C)c2)O3)c1` (stereo unspecified), which inhibition is on record?
The inhibition was inactive: -4.1%.

With `COc1ccc([C@H]2CC(=O)C=C(c3cccc(F)c3OC)C2)cc1` as the compound, how does the inhibition read?
Its inhibition is inactive: -0.7%.

For `O=C(NCc1cccs1)C1CCN(c2nc3ccccc3o2)CC1`, which inhibition is on record?
The inhibition was inactive: 12.3%.

With `CCOc1cc(C(F)(F)F)cnc1/C(N)=N/O` as the compound, how does the inhibition read?
Its inhibition is inconclusive: -52.8%.

Which inhibition does the source give for `COc1ccc2[nH]c(CN3CCN(CC=C(C)C)C(CCO)C3)c(C)c2c1` (stereo unspecified) here?
The inhibition was inconclusive: -7.9%.

Which inhibition does the source give for `CC(C)(C)NC(=O)CSc1nc(Cc2ccccc2)nc2ccccc12` here?
Its inhibition is inconclusive: -19.8%.

For `O=C(CSc1ncn[nH]1)Nc1ncc(C(F)(F)F)cc1Cl`, which inhibition is on record?
The inhibition was inactive: -8.9%.

`CCOc1ccc(NC(=O)CSc2nc3[nH]ncc3c(=O)[nH]2)cc1` was tested. Which inhibition did it give?
The inhibition was inconclusive: -2.2%.

Which inhibition does the source give for `Cc1cc(C)c(S(=O)(=O)N2CCCCC2C(=O)O)c(C)c1` (stereo unspecified) here?
Its inhibition is inactive: 2.3%.

How did the inhibition turn out when `Nn1c(Cc2ccccc2)nc2ccccc2c1=O` was run?
Its inhibition is inconclusive: 12.3%.

For `Cc1cccc(C(=O)N2CCC(C)(C(=O)NS(=O)(=O)C3CC3)C2)c1C` (stereo unspecified), which inhibition is on record?
Its inhibition is inactive: 1.1%.

Which inhibition does the source give for `Cn1c(=O)c2c(nc(Sc3ncccn3)n2Cc2ccc(Cl)cc2)n(C)c1=O` here?
The inhibition was inactive: -7.4%.

`CC1CC(C)CN(CCC(=O)Nc2ccc(Br)cc2)C1` (stereo unspecified) was tested. Which inhibition did it give?
The inhibition was inconclusive: -17.3%.

How did the inhibition turn out when `Cc1cc2ccccc2n1CCNC(=O)C1CCCCC1` was run?
Its inhibition is inactive: -27.1%.

How did the inhibition turn out when `O=C(NCc1ccccc1)c1ccc(S(=O)(=O)C(F)F)cc1` was run?
Its inhibition is inconclusive: 8.2%.

For `CCOc1ccccc1N(CC(=O)Nc1ccccc1F)S(=O)(=O)c1ccccc1`, which inhibition is on record?
The inhibition was inconclusive: -18.6%.

With `Cc1cccc(C(=O)NNS(=O)(=O)c2ccc(F)cc2)c1` as the compound, how does the inhibition read?
Its inhibition is inconclusive: -13%.

How did the inhibition turn out when `N#Cc1c(NCCO)ccc([N+](=O)[O-])c1NCCO` was run?
Its inhibition is inconclusive: -51.4%.

`C=CCOc1ccc(/C=C2\SC(=S)N(NS(=O)(=O)c3ccc(C)cc3)C2=O)cc1` was tested. Which inhibition did it give?
The inhibition was inconclusive: 8.5%.

`CCOC(=O)N1CCN(S(=O)(=O)CCNC(=O)c2ccccc2)CC1` was tested. Which inhibition did it give?
Its inhibition is inconclusive: -9.4%.

Which inhibition does the source give for `Cn1c(=O)c2c(nc(N3CCc4ccccc4C3)n2Cc2ccccc2F)n(C)c1=O` here?
Its inhibition is inconclusive: -10.7%.

With `Cc1cc(/C(N)=N/OC(=O)c2ccc(Cl)cc2)no1` as the compound, how does the inhibition read?
The inhibition was inconclusive: 16%.

`CC(C)c1ccc(NC(=O)CSc2nnc(-c3ccccn3)n2C)cc1` was tested. Which inhibition did it give?
The inhibition was inactive: 16.7%.

`CC1=CC(C)(C)N(C(=O)c2ccccc2)c2ccc(C)cc21` was tested. Which inhibition did it give?
Its inhibition is inactive: -10.7%.

For `CCCCCCCN1C/C=C\C(c2ccc(OC)cc2)N(Cc2ccc(F)cc2)C(=O)[C@H]1Cc1ccccc1` (stereo partly specified), which inhibition is on record?
Its inhibition is inactive: -10.7%.

`CCOC(=O)c1nc(C)n(-c2cc(Cl)ccc2Cl)n1` was tested. Which inhibition did it give?
The inhibition was inactive: 2.1%.

How did the inhibition turn out when `CCCc1nc2sc3ccccc3c(=O)c2c(=O)n1Cc1ccc(OC)cc1` was run?
Its inhibition is inconclusive: 79.3%.

With `COc1ccccc1/C=C/C=N/n1c(-c2ccco2)n[nH]c1=S` as the compound, how does the inhibition read?
The inhibition was inconclusive: 34.4%.

Which inhibition does the source give for `CCN(c1cccc(C)c1)S(=O)(=O)c1cc2c3c(c1)CCC(=O)N3CCC2` here?
Its inhibition is inconclusive: 18.7%.

With `Cc1ccc(NC(=O)c2cc(NC(=O)c3ccco3)ccc2N2CCOCC2)cc1Cl` as the compound, how does the inhibition read?
Its inhibition is inconclusive: -1%.

`COc1ccc(NC(=O)CS(=O)(=O)Cc2ccccc2)c([N+](=O)[O-])c1` was tested. Which inhibition did it give?
The inhibition was inactive: 0.6%.

How did the inhibition turn out when `Cn1cccc1/C=N/NC(=O)Cc1cccs1` was run?
The inhibition was inconclusive: -52.9%.

`CCOc1ccccc1-c1nnc(SCC(=O)NC2CC2)n1CC` was tested. Which inhibition did it give?
The inhibition was inactive: 7.6%.

With `CCN1CCC(O)(C(C(=O)OC)c2ccccc2)CC1` (stereo unspecified) as the compound, how does the inhibition read?
Its inhibition is inactive: -5.2%.

How did the inhibition turn out when `CC(C)(C)NC(=S)Nc1ccc(Nc2ccccc2)cc1` was run?
Its inhibition is inactive: -9.6%.

Which inhibition does the source give for `Cc1ccc(S(=O)(=O)N(CCO)Cc2ccccc2)cc1` here?
The inhibition was inconclusive: 0.1%.

From PubChem BioAssay AID588497 (NMMLSC, 2011)
